Drawing on publication PMC7768192, this text covers binding for two molecules.

One experiment concerns the target T1, GFP-FAM83A, Q86UY5.
T1 chain: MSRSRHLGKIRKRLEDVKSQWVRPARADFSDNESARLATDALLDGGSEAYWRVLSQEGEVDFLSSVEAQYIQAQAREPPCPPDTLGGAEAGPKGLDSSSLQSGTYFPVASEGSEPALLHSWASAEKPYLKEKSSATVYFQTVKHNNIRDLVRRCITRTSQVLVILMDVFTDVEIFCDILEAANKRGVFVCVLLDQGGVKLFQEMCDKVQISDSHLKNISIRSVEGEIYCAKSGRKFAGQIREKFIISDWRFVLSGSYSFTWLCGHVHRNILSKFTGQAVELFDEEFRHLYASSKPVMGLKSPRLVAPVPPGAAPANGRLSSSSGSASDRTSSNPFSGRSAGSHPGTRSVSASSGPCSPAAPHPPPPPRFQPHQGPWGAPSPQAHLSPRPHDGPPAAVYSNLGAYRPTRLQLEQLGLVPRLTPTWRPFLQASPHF
As to the kind of experiment: co-IP; GFP-Trap agarose beads on lysates (1 mg protein) of U2OS Flp/Trx cells expressing GFP-tagged proteins (doxycycline 20 ng/ml, 24 h), 16 h at 4°C, Triton X-100 lysis buffer; Western blot for endogenous CK1α. The settings on record: remark: other sources report otherwise.

The target of experiment [1] is casein kinase 1α (human (endogenous in U2OS, HCT116 and DLD-1)) (UniProt P48729). In words: co-IP; anti-CK1α antibody (1 μg) and Protein G Sepharose on extracts (1 mg protein) of HCT116 and DLD-1 cells (wild-type, FAM83F^-/-, FAM83F^C497A knock-in), untreated or treated with L-CM or Wnt3A-CM for 6 h; Western blot for FAM83F and FAM83G.

No constants are given. Whether binding was seen depends on the method and setting. Binding seen in cells or lysates may run through a third protein. Some entries that bind do so weakly or less than the wild type. For some assays here: Tags and fused reporters may be left off the sequences shown.

B1: casein kinase 1α, P48729 1-337 (enzyme)
chain: MASSSGSKAEFIVGGKYKLVRKIGSGSFGDIYLAINITNGEEVAVKLESQKARHPQLLYESKLYKILQGGVGIPHIRWYGQEKDYNVLVMDLLGPSLEDLFNFCSRRFTMKTVLMLADQMISRIEYVHTKNFIHRDIKPDNFLMGIGRHCNKLFLIDFGLAKKYRDNRTRQHIPYREDKNLTGTARYASINAHLGIEQSRRDDMESLGYVLMYFNRTSLPWQGLKAATKKQKYEKISEKKMSTPVEVLCKGFPAEFAMYLNYCRGLRFEEAPDYMYLRQLFRILFRTLNHQYDYTFDWTMLKQKAAQQAASSSGQGQQAQTPTGKQTDKTKSNMKGF
On to B1, for which the binding entry with GFP-FAM83A, Q86UY5 is “no binding”.

B2: FAM83F^C497A (endogenous knock-in) (protein, UniProt Q8NEG4 1-500)
chain: MAESQLNCLDEAHVNEKVTEAQAAFYYCERRRAALEALLGGGEQAYRERLKEEQLRDFLSSPERQALRAAWSPYEDAVPAANARGKSKAKAKAPAPAPAESGESLAYWPDRSDTEVPPLDLGWTDTGFYRGVSRVTLFTHPPKDEKAPHLKQVVRQMIQQAQKVIAVVMDLFTDGDIFQDIVDAACKRRVPVYIILDEAGVKYFLEMCQDLQLTDFRIRNIRVRSVTGVGFYMPMGRIKGTLSSRFLMVDGDKVATGSYRFTWSSSHVDRNLLLLLTGQNVEPFDTEFRELYAISEEVDLYRQLSLAGRVGLHYSSTVARKLINPKYALVSGCRHPPGEMMRWAARQQREAGGNPEGQEEGASGGESAWRLESFLKDLVTVEQVLPPVEPIPLGELSQKDGRMVSHMHRDLKPKSREAPSRNGMGEAARGEAAPARRFSSRLFSRRAKRPAAPNGMASSVSTETSEVEFLTGKRPNENSSADISGKTSPSSAKPSNAVIS
Regarding B2, the binding entry in experiment [1] is listed as “binds”.
